From article PMC10485897
Results are given in words; binding and its absence hold for the method and conditions named. In cells and extracts the contact can be indirect. Some results given as binding are weak or reduced against the parent protein; the word gives no strength. Tags and fused reporters may be left off the sequences shown.

Target: T1, EGFP-tagged Inversin (EGFP-INVS) (UniProt Q9Y283)
T1 sequence: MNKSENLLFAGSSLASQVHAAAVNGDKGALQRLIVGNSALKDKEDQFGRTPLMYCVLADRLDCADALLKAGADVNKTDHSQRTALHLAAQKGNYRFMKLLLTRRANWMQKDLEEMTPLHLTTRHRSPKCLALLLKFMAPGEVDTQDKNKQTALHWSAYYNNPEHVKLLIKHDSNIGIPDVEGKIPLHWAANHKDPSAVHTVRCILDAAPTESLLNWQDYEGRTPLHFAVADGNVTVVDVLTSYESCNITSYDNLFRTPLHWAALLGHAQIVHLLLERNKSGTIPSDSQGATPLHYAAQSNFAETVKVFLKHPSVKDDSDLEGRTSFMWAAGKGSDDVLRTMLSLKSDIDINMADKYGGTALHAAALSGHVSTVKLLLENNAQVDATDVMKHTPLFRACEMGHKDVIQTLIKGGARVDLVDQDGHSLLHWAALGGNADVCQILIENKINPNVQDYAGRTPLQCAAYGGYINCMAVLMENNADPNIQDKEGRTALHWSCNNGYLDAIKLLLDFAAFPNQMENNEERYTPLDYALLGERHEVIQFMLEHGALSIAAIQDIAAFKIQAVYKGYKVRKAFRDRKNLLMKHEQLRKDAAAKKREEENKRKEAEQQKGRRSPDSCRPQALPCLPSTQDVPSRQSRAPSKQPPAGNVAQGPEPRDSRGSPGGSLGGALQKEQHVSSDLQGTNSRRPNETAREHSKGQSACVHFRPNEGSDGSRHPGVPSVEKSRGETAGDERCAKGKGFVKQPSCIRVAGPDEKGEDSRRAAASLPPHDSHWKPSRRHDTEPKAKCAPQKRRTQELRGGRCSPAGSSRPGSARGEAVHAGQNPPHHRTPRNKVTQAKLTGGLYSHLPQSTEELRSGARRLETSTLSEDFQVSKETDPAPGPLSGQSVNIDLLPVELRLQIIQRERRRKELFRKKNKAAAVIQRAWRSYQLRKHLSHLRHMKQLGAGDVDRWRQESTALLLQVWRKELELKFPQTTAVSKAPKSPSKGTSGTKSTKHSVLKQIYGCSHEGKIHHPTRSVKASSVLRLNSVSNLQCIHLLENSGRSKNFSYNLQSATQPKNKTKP
Test: pull-down; GFP-pulldown with GFP-Trap-MA magnetic agarose beads (ChromoTek) from HEK293T cells co-transfected for 48 h and lysed in RIPA buffer (50 mM Tris-HCl pH 8.0, 150 mM NaCl, 1% NP-40, 0.5% sodium deoxycholate, 0.1% SDS); detection by western blotting

binding: binds
B1: MYC-BBS6 (protein, UniProt Q9NPJ1 1-570)
chain: MSRLEAKKPSLCKSEPLTTERVRTTLSVLKRIVTSCYGPSGRLKQLHNGFGGYVCTTSQSSALLSHLLVTHPILKILTASIQNHVSSFSDCGLFTAILCCNLIENVQRLGLTPTTVIRLNKHLLSLCISYLKSETCGCRIPVDFSSTQILLCLVRSILTSKPACMLTRKETEHVSALILRAFLLTIPENAEGHIILGKSLIVPLKGQRVIDSTVLPGILIEMSEVQLMRLLPIKKSTALKVALFCTTLSGDTSDTGEGTVVVSYGVSLENAVLDQLLNLGRQLISDHVDLVLCQKVIHPSLKQFLNMHRIIAIDRIGVTLMEPLTKMTGTQPIGSLGSICPNSYGSVKDVCTAKFGSKHFFHLIPNEATICSLLLCNRNDTAWDELKLTCQTALHVLQLTLKEPWALLGGGCTETHLAAYIRHKTHNDPESILKDDECTQTELQLIAEAFCSALESVVGSLEHDGGEILTDMKYGHLWSVQADSPCVANWPDLLSQCGCGLYNSQEELNWSFLRSTRRPFVPQSCLPHEAVGSASNLTLDCLTAKLSGLQVAVETANLILDLSYVIEDKN
